# ± gives the standard deviation of the averaged measurements. This is one part of the list. Repeats in this data set agree poorly, so a single value says little.
# System: IL-6-GFP PC-9
# Assay: IL-6-GFP fluorescence relative to DMSO control (fraction of control); higher = more IL-6-GFP expression
# Conditions: compound concentration: 10 uM; treatment time: 48 h
# Experimental: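 IL-6-GFP-overexpressing PC-9 and PC-9GR EGFR-mutant lung cancer cells (3000 cells/well, 96-well) were treated for 48 h with each compound of the Selleck L2000 library at 10 uM. IL-6-GFP fluorescence was read on a high-content screening system, and viability by CCK-8 absorbance on a parallel plate set. Each value was normalised as compound well / DMSO control well; two independent replicates.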
row,Compound,IL-6-GFP fluorescence
1,Nc1ccn(C2OC(CO)C(O)C2O)c(=O)n1 (centres undefined) [Cytarabine],0.845 ± 0.034
2,O=NN(CCCl)C(=O)NCCCl [Carmustine],0.728 ± 0.13
3,NCCc1c[nH]cn1 [Histamine],0.996 ± 0.027
4,Nc1ncn(C2OC(CO)C(O)C2O)c(=O)n1 (centres undefined) [Azacitidine],1.04 ± 0.25
5,COc1nc(N)nc2c1ncn2C1OC(CO)C(O)C1O (centres undefined) [Nelarabine],0.922 ± 0.026
6,"C/C=C1/C2C=C(C)CC1(N)c1ccc(=O)[nH]c1C2 (single isomer, unassigned; (-)) [(-)-Huperzine A (HupA)]",1.06 ± 0.44
7,O=c1c(-c2ccc(O)cc2)coc2cc(O)cc(O)c12 [Genistein],1.07 ± 0.29
8,CCCCOC(=O)c1ccccc1Nc1cccc(C(F)(F)F)c1 [Ufenamate],0.85 ± 0.097
9,Cc1coc2c1C(=O)C(=O)c1c-2ccc2c1CCCC2(C)C [Tanshinone IIA],0.858 ± 0.047
10,O=NN(CCCl)C(=O)NC1CCCCC1 [Lomustine],0.882 ± 0.2
11,O=c1[nH]c(=O)n(C2CCCO2)cc1F (centres undefined),0.692 ± 0.37
12,Cc1c(Cl)cccc1Nc1ncccc1C(=O)O [Clonixin],0.789 ± 0.072
13,COc1cc2nccc(Oc3ccc(NC(=O)C4(C(=O)Nc5ccc(F)cc5)CC4)cc3)c2cc1OC,0.997 ± 0.18
14,CC(C(=O)O)c1ccc(CC2CCCC2=O)cc1 (centres undefined) [Loxoprofen],0.914 ± 0.12
15,COc1cccc2c1C(=O)c1c(O)c3c(c(O)c1C2=O)CC(O)(C(=O)CO)CC3OC1CC(N)C(O)C(C)O1.Cl (centres undefined) [Doxorubicin (Adriamycin) HCl],0.681 ± 0.074
16,Cl.NC1=NCC2c3ccccc3Cc3ccccc3N12 (centres undefined) [Epinastine HCl],0.948 ± 0.048
17,CCOC(=O)N1CCC(=C2c3ccc(Cl)cc3CCc3cccnc32)CC1 [Loratadine],1.04 ± 0.22
18,CNC(=NC#N)NCCSCc1nc[nH]c1C [Cimetidine],0.863 ± 0.078
19,OCc1ccccc1OC1OC(CO)C(O)C(O)C1O (centres undefined) [Salicin],1.02 ± 0.036
20,O=c1cc[nH]c(=O)[nH]1 [Uracil],0.966 ± 0.073

# Entries listed so far that contain four or more nitrogen atoms (three):
row,Compound,IL-6-GFP fluorescence
4,Nc1ncn(C2OC(CO)C(O)C2O)c(=O)n1 (centres undefined) [Azacitidine],1.04 ± 0.25
5,COc1nc(N)nc2c1ncn2C1OC(CO)C(O)C1O (centres undefined) [Nelarabine],0.922 ± 0.026
18,CNC(=NC#N)NCCSCc1nc[nH]c1C [Cimetidine],0.863 ± 0.078

# Remaining list, next part.

row,Compound,IL-6-GFP fluorescence
1,CC(C(=O)O)c1ccc2c(c1)Cc1cccnc1O2 (centres undefined) [Pranoprofen],0.8881 ± 0.0073
2,CC(C(=O)[O-])c1cccc(Oc2ccccc2)c1.CC(C(=O)[O-])c1cccc(Oc2ccccc2)c1.[Ca+2] (centres undefined) [Fenoprofen Calcium],0.877 ± 0.074
3,O=C(O)CCc1nc(-c2ccccc2)c(-c2ccccc2)o1 [Oxaprozin],0.837 ± 0.058
4,Cc1ccc(Nc2c(F)cccc2Cl)c(CC(=O)O)c1 [Lumiracoxib],0.856 ± 0.26
5,Cc1ccc(C(C)C)cc2c(C)ccc1-2 [Guaiazulene],1.05 ± 0.07
6,NC1CCCCC1N.O=C([O-])C(=O)[O-].[Pt+2] (centres undefined) [Oxaliplatin],1.1 ± 0.56
7,CN(C)CCC(c1ccc(Br)cc1)c1ccccn1.O=C(O)/C=C\C(=O)O (centres undefined) [Brompheniramine hydrogen maleate],0.805 ± 0.21
8,CC(=O)OCC(CCn1cnc2cnc(N)nc21)COC(C)=O [Famciclovir],0.825 ± 0.17
9,C[S+](C)CCC(N)C(=O)O.[Cl-] (centres undefined),0.844 ± 0.18
10,CC1CNc2c(cccc2S(=O)(=O)NC(CCCNC(=N)N)C(=O)N2CCC(C)CC2C(=O)O)C1.O (centres undefined) [Argatroban Monohydrate],0.85 ± 0.067
11,CC(=O)OC1(C(C)=O)CCC2C3C=C(C)C4=CC(=O)CCC4(C)C3CCC21C (centres undefined) [Megestrol Acetate],0.738 ± 0.36
12,Cn1cc(C2=C(c3cccc(N)c3)C(=O)NC2=O)c2ccccc21,0.579 ± 0.27
13,CC(C(=O)O)c1ccc2c(c1)CC(=O)c1ccccc1S2 (centres undefined) [Zaltoprofen],0.866 ± 0.29
14,CS(=O)(=O)Nc1cc2occ(NC=O)c(=O)c2cc1Oc1ccccc1 [Iguratimod],2.15 ± 0.35
15,NC(CCC(=O)NC(CS)C(=O)NCC(=O)O)C(=O)O (centres undefined) [Glutathione],0.799 ± 0.096
16,Cc1cc(S(=O)(=O)[O-])c2c(C)ccc(C(C)C)cc1-2.[Na+] [Sodium gualenate],0.784 ± 0.014
17,CC(CCC(=O)NCCS(=O)(=O)O)C1CCC2C3C(O)CC4CC(O)CCC4(C)C3CCC12C (centres undefined) [Tauroursodeoxycholic Acid (TUDCA)],0.824 ± 0.27
18,CC(=O)OC[C@H]1O[C@@H]([S-])[C@H](OC(C)=O)[C@@H](OC(C)=O)[C@@H]1OC(C)=O.CCP(CC)CC.[Au+] [Auranofin],0.898 ± 0.25
19,O.S=c1nc[nH]c2nc[nH]c12 [6-Mercaptopurine (6-MP) Monohydrate],0.884 ± 0.0093

# Source: the supplement of paper PMC8866396
